The results in this text go back to publication PMC10955226.

Amino acid sequences for entries named in this document (tags omitted).
UniProt Q8IX03: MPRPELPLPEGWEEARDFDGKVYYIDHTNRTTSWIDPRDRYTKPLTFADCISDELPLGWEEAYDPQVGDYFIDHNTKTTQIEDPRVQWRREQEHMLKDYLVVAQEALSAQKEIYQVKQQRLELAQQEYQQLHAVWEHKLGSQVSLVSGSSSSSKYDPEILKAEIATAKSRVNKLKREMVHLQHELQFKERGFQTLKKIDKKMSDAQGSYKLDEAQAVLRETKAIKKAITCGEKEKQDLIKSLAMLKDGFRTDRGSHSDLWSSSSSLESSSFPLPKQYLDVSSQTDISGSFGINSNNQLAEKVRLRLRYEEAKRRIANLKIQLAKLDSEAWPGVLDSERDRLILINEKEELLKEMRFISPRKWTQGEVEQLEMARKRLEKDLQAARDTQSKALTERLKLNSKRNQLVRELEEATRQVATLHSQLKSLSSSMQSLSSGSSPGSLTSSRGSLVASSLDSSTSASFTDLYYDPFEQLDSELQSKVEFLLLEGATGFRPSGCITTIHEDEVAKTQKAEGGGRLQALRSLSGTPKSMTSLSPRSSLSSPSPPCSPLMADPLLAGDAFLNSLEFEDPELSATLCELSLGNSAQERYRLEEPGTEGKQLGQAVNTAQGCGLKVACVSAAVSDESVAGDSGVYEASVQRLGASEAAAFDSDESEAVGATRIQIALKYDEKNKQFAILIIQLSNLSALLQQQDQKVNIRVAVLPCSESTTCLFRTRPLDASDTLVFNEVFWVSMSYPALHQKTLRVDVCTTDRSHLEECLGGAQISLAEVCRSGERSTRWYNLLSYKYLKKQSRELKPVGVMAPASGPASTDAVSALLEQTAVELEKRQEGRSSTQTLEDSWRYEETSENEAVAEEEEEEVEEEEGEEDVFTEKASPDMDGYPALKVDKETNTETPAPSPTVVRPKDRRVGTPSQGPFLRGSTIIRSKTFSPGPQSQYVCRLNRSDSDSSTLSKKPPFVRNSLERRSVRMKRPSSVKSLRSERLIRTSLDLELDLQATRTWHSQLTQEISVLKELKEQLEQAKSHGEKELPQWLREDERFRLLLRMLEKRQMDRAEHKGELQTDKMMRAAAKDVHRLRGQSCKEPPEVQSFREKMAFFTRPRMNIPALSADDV

Experiment [1] has as its target Flag-WWC1 (UniProt Q8IX03). The experiment can be described thus: co-IP; Flag-WWC1 transfected into Huh-7, SMCC-7721 with JCAD stably overexpressed, or AML12 cells; Flag-tag immunoprecipitated, JCAD immunoblotted. (A western blot detects proteins with antibodies after separation by electrophoresis.)
Experiment [2] addresses Flag-WWC1 (UniProt Q8IX03). The experiment can be described thus: co-IP; lysates of cells co-transfected with tagged JCAD and Flag-WWC1 (wild type or mutants) incubated with Flag magnetic beads at 4°C overnight, washed, boiled, immunoblotted; HEK293T named for Figure 8B, cells not named for Figures 8F and 8G.
Experiment [3] deals with Flag-WWC1 (UniProt Q8IX03). The experiment can be described thus: co-IP; HEK293T cells transfected with Myc-JCAD, HA-LATS2 and Flag-WWC1 together; competition by LATS2 overexpression; Flag magnetic beads.

No constants are given. Whether binding was seen depends on the method and setting. Binding seen in cells or lysates may run through a third protein. Some entries that bind do so weakly or less than the wild type. For part of these data: Where a sequence is shown, tags or fusion partners need not be part of it.

B1: JCAD, endogenous in AML12 cells (protein, UniProt Q5DTX6 1-1320)
chain: MYSVEDLLISHGYKPARDAAAPCEDKSERCRSTRTGPRAGQGLLNGYKDGATAHTHSRTSLGTGHVSNSENRISRPRGHREHQSTSRTPEARFLNQPSLAWSSQPQSGRDDIYWSRGRQEGSGSLCPRDWKELESRGMAQAYSLPVHVRENLWEVAGRTEHVMKNAIWEEELRMQDMSLESWKKPRELGRQASDGDGRKRPQEKFEGLYPFVHGEHTSQNRKKSQSLPRALSPKSLNFTEIPVPLHDGHITGVPKVPPYPPSFPSPSEPMRNLEKASSSGPFPRPKFGKPLKTPCYSSHSQPRGEGGFQDHQHRDPRGSYPTRSKDPSHELGMLDPGLEPPVYVPPPSYRSPPQHIPNPYLEDPVPRHVSSNQSQQQVPEKPETSCPLPSGSLAARDLYDAMPGSPPQGLPPQPYPIATHGGSIQYIPFDDPRIRHIKLAQPPEFYEEAKLDDTSYNPGLLTTQEPAIGKRQYDDAPSVPRGPTPSPVNEQSSAFVHSSPRWLQGQLPLGIGPGGFHGQTEHHVMGGLTTNVTDIKAEGHASSPQPQSEGTCKTYTKLRKFETGVQSKKSSKKKSNATIFCLVSIPVKSESLVLATDTNNNDFKLVADKTRGLCQGSALQEQSLLSMSSTDLELQALMGSMAWRRTSPRQGLRESEDGQIDDPRILHLIKPKELQASSPWPGHQYRDQQTQTSFHEDSKSSQLLPATKPGEASNVAPTPTCPDTTASEVCLHTALAFSDQNQKPSVPHLQGQTSLSPSRNSAFSRTSSAINQASMSKGTSDQLPGANPVPKPEVVKGESTTGQCNSTQLFGQFLLKPVSRRPWDLISQLESFNKELQEEEESHGGSGSEDSEAEQPEDCADSRTKSWALQGTRTAQQPAGLALENVASPDRRLNDSQSWNEEPKPGHSSVHPQSLGPSQEEGSRGVPVQWADGSLTAEQKSQEDLNGMCERDFSPRPVSRIAPIDTKAAPLYCLSEPRGSQELTKFGDAVGSVQLGRETPTQVGNGGDTEVLPCVLLPLADKYRGHSTPDFRSLELTLGQEQNAYKLECLDLENTVEVLPSESLQERAERILGIEVAVESLLPSARRTEQSQLPEPDASACNPSSSREDSSHSLALPVGPKVATDAFYGRRKCGWTESPLFVGERAPQASICSDVDGFPTSQATSPEPGKKDEEAKAPFKSTLFHFMEKSTNVVGPEKRLRNPSKVVENLQEKLVSPPKKADSVHLIRMREVNSLSQMRCLSSKSADSVEEPDPLKVIKSSAWLSEGLTSLGGKDEAWQAGHLPSVSQNENGHPEVPRDKMSDQDLWCADSYDPSRVERV
Regarding B1, the binding entry with Flag-WWC1 [1] is “binds”.

B2: HA-JCAD (junctional protein-associated with coronary artery disease) (protein, UniProt Q9P266 1-1359)
chain: MYSVEDLLISHGYKLSRDPPASREDNPKGRQAARTGTRAGQGLQNGHEDGPAALAHRKTSAGKGHVSDSESRRSTPRGHGEPQSTSASRTSEAGFCNQPPSAWSSHPPTGNDQAYRRRGRQEARSQKPREHENLEARGMAQAHSLPVHVREGPWEVGGRSEHVMKKPVWEEELRMSGPAKWQNVSLESWNQPRKLGRQMSDGDGERLFQDLYPFIQGEHVLNSQNKGKSRSLPRVLSPESLSCTEIPIPLNERHSPKMPPYPPTCAPNLDSTRNSEKSGCSAPFPRPKFGRPLKPPSYSSHQQSRGGADSSDSQDSQQMDAYVPRHELCLSDPGLEPPVYVPPPSYRSPPQNIPNPYLEDTVPINVCGGHSQQQSPTEKAGASGQPPSGPPGTGNEYGVSPRLPQGLPAHPRPVTAYDGFVQYIPFDDPRLRHFKLAQPQGFCEDIKLDDKSYNSSPVTAQEPAHGGMQPDGAIWNPQSLIPPSGDERGLVLADSSPRWLWGQPPGDGENSGLPNQRDRCVARGQWPDVRGSQHGHTGRQVSSPYSQGESTCETQTKLKKFQTGTRTKKSSKKKMNETIFCLVSIPVKSESHLPDRDMDNNDLKPSADQKNGSDKSPALQEQSLLSMSSTDLELQALTGSMGGRTEFQKQDLGEPEEDRQTNDLSFIHLTKHRELKHSGSWPGHRYRDQQTQTSFSEEPQSSQLLPGAKLGGPSRAALSPKCSDPAASEAQTHTAFPTGDHKQRPSARNLKGHRSLSPSSNSAFSRTSLSVDQAPTPKAGRSQPCVDVHGLGAHPGPKREVVKGEPTGPCNSKQLFGQFLLKPVSRRPWDLISQLESFNKELQEEEESSSSSSSSSSSSEESEAEPQQENRAHCRQEDVGFRGNSPEMRVEPQPRMWVPESPVCRSGRGESKSESWSEELQPGHPRAWPPSPGRFRVEEGGGAPFCSADGSTSAEKRHLEVSNGMDELAGSPFPVTRMSSRSSDAKPLPASYPAEPREPQESPKITSAFSSVKPSEAVPRKFDSGGERGAGLPLSLSNKNRGLSAPDLRSVGLTPGQEQGASELEGSLGEASTIEIPPGESLQARAARILGIEVAVESLLPGIRRAGQNQPAEPDASACTPESPQEELLSRPAPADVPRVSTDAFYGRRKCGWTKSPLFVGDRDSARRAPQAFEHSDVDGVVTSTDPVPEPEPSPLESKFFEQKDVETKPPFRSTLFHFVERTPSVAGSEKRLRSPSKVIESLQEKLASPPRRADPDRLMRMKEVSSVSRMRVLSFRNADSQEDAEELKATTRGQAGLPGGLVSPGSGDRAQRLGHSLSVSKDSISREEKEHPAAQKEKSMDQDFWCPDSYDPSRVERV
Turning to B2, in the experiment with Flag-WWC1 [2], the binding result is reported as “binds”.

B3: JCAD, endogenous in Huh-7 cells (protein, UniProt Q9P266 1-1359)
chain: B2 chain
Take B3: in the experiment with Flag-WWC1 [1], the binding entry is recorded as “binds”.

B4: JCAD, stably overexpressed in SMCC-7721 cells (protein, UniProt Q9P266 1-1359)
chain: B2 chain
For the molecule B4, the binding result with Flag-WWC1 [1] was “binds”.

B5: Myc-JCAD, wild type (protein, UniProt Q9P266 1-1359)
chain: B2 chain
Regarding B5, the binding entry in the experiment with Flag-WWC1 [3] and in the experiment with Flag-WWC1 [2] was “binds” each time.
